This passage reports T/C and survivor count results from PubChem BioAssay AID246 (DTP/NCI, 2004).

Molecules are shown by their SMILES. The list is a part of this screen's results and no random one: it gathers tests that were run many times, whatever their T/C, doses with no T/C, and many T/C values between a quarter and a half above the control. Other doses and runs of a compound stand elsewhere. T/C: endpoint of the treated group in % of that of the vehicle group. Some entries give survivors of the animals treated and no T/C: the source holds a T/C of zero for them, seemingly a mark for toxic or unscored doses. Some survivor counts are full or nearly so, which does not show that the dose was tolerated: survival well below the control is almost never listed, so the zero probably covers shortened survival too. Survivors were counted at the toxicity check, usually on the fifth day, unless a day is given; later deaths do not show. Schedule codes are those of the source, taken here to give the interval after Q, in days (D) or hours (H), and the number of doses after X. Some schedules carry Z or #; the key to these is not given. Some doses were run more than once; the results are listed from low to high. For survival time, the PubChem record calls one and a half times the control and up active, and a quarter to a half above the control has no call in these data; cut-offs in other NCI protocols can differ. Brackets with × stand for listed records that agree. Some T/C values are followed by the survivors on the day toxicity was checked, most often the fifth; where none is given, no animal had died by that day. Numbered stars: 1 amine (or outer) side, 2 acyl side, 3 side chain; on linkers, the order of the positions; unused ones are H or OH. Bridge positions count the residues as written; N and C are the ends. Square brackets hold non-standard residues; d marks the D form. Peptide text beside a SMILES is read from it. I, II: the chains in the order shown. Actinocin(9to1) = Cc1c2oc3c(C)ccc(C(=O)[*:1])c3nc-2c(C(=O)[*:2])c(N)c1=O; aThr = C[C@H](O)[C@H](N)C(=O)O; NMeV = CN[C@H](C(=O)O)C(C)C; Sar = CNCC(=O)O

This test relates to BDF1 mice, P1081 chloroleukemia ip, survival T/C. The test is described as follows: NCI In Vivo Anticancer Drug Screen. Data for tumor model P1081 Chloroleukemia (intraperitoneal) in B6D2F1 (BDF1) mice. The conditions noted are these: T/C endpoint: mean survival time, higher T/C = longer survival. How it is done:
The antitumor activity of compounds was measured in mice bearing transplantable tumors. Survival or tumor size were measured and the results are expressed as the measurement made in the treated group (T) divided by the measurement made in the vehicle treated control group (C). The tumor model used in this assay is P1081 Chloroleukemia (intraperitoneal) in B6D2F1 (BDF1) mice

Where [1] appears, read: dose: 0.5 mg/kg/injection, schedule: Q01DX010 (ip), vehicle: saline.
[2] abbreviates: dose: 200.0 mg/kg/injection, schedule: Q01DX Z (ip), vehicle: carboxymethylcellulose (CMC).
Where [3] appears, read: dose: 125.0 mg/kg/injection, schedule: Q01DX Z (ip), vehicle: carboxymethylcellulose (CMC).
Where [4] appears, read: dose: 12.5 mg/kg/injection, schedule: Q01DX Z (ip), vehicle: carboxymethylcellulose (CMC).
Where [5] appears, read: dose: 120.0 mg/kg/injection, schedule: Q01DX010 (ip), vehicle: saline.

Regarding `CC[C@]1(O)C[C@H]2CN(CCc3c([nH]c4ccccc34)[C@@](C(=O)OC)(c3cc4c(cc3OC)N(C=O)[C@H]3[C@@](O)(C(=O)OC)[C@H](OC(C)=O)[C@]5(CC)C=CCN6CC[C@]43[C@@H]65)C2)C1`, the T/C runs as follows: (dose: 0.03 mg/kg/injection, schedule: Q01DX010 (ip), vehicle: saline) 115, 118, 122, 125 % of control; (dose: 0.06 mg/kg/injection, schedule: Q01DX010 (ip), vehicle: saline) 117, 130, 133, 146 % of control; (dose: 0.12 mg/kg/injection, schedule: Q01DX010 (ip), vehicle: saline) 123, 150, 152, 161 % of control; (dose: 0.12 mg/kg/injection, schedule: Q01DX Z (ip), vehicle: water) 129 % of control; (dose: 0.25 mg/kg/injection, schedule: Q01DX010 (ip), vehicle: saline) 127, 170, 188, 237 % of control; (dose: 0.25 mg/kg/injection, schedule: Q01DX Z (ip), vehicle: water) 145 % of control. Moreover, the T/C by setting is: under setting [1], 92 and 100 % of control; (dose: 0.5 mg/kg/injection, schedule: Q01DX Z (ip), vehicle: water) 139 % of control. In addition, under setting [1], the survivor count is given as 6 of 6.

As for `C[C@]12C=CC(=O)C=C1CC[C@@H]1[C@@H]2C(=O)C[C@@]2(C)[C@H]1CC[C@]2(O)C(=O)CO`, the T/C is, setting by setting: (dose: 25.0 mg/kg/injection, schedule: Q01DX Z (sc), vehicle: steroid suspending solution) 127 % of control; (dose: 50.0 mg/kg/injection, schedule: Q01DX Z (sc), vehicle: steroid suspending solution) 131 % of control. For the same molecule, the survivor count reads like this: (dose: 100.0 mg/kg/injection, schedule: Q01DX Z (sc), vehicle: steroid suspending solution) 6 of 6; (dose: 200.0 mg/kg/injection, schedule: Q01DX010 (sc), vehicle: steroid suspending solution) 6 of 6; (dose: 200.0 mg/kg/injection, schedule: Q01DX Z (sc), vehicle: steroid suspending solution) 4 of 6; (dose: 400.0 mg/kg/injection, schedule: Q01DX Z (sc), vehicle: steroid suspending solution) 6 of 6.

As for `CCOC(=O)c1[nH]c2ccccc2c1CN(CCCl)CCCl`, the survivor count is 6 of 6 (dose: 10.0 mg/kg/injection, schedule: Q01DX010 (ip), vehicle: saline); 6 of 6 (dose: 20.0 mg/kg/injection, schedule: Q01DX010 (ip), vehicle: saline); 6 of 6 (dose: 40.0 mg/kg/injection, schedule: Q01DX010 (ip), vehicle: saline); 0 of 6 (dose: 80.0 mg/kg/injection, schedule: Q01DX010 (ip), vehicle: saline).

Consider `CC[C@H](c1ccc(O)cc1)[C@@H](CC)c1ccc(O)cc1`, for which the survivor count (dose: 31.25 mg/kg/injection, schedule: Q01DX Z (sc), vehicle: steroid suspending solution) is recorded as 6 of 6; the survivor count (dose: 62.5 mg/kg/injection, schedule: Q01DX Z (sc), vehicle: steroid suspending solution) is given as 6 of 6; the survivor count (dose: 125.0 mg/kg/injection, schedule: Q01DX Z (sc), vehicle: steroid suspending solution) is reported as 4 of 6; the survivor count (dose: 250.0 mg/kg/injection, schedule: Q01DX Z (sc), vehicle: steroid suspending solution) is 2 of 6.

For `CCCCn1cnc2c(=S)nc[nH]c21`, the T/C was 135 % of control (dose: 32.0 mg/kg/injection, schedule: Q01DX010 (ip), vehicle: saline) and 125 % of control (dose: 64.0 mg/kg/injection, schedule: Q01DX010 (ip), vehicle: saline). Besides, the survivor count under setting [2] is recorded as 3 of 6.

With `O=CCC(O)C(O)C(O)CO` (centres undefined), the survivor count runs as follows: under setting [3], 6 of 6; (dose: 500.0 mg/kg/injection, schedule: Q01DX Z (ip), vehicle: carboxymethylcellulose (CMC)) 6 of 6; (dose: 1000.0 mg/kg/injection, schedule: Q01DX Z (ip), vehicle: carboxymethylcellulose (CMC)) 6 of 6.

`Nc1nc2n[nH]nc2c(=O)[nH]1`: the T/C reads like this: (dose: 25.0 mg/kg/injection, schedule: Q01DX010 (ip), vehicle: alkali diluted with saline) 130 % of control (2×); (dose: 25.0 mg/kg/injection, schedule: Q01DX Z (ip), vehicle: other) 141 % of control; (dose: 50.0 mg/kg/injection, schedule: Q01DX010 (ip), vehicle: alkali diluted with saline) 135 and 140 % of control; (dose: 100.0 mg/kg/injection, schedule: Q01DX010 (ip), vehicle: alkali diluted with saline) 140 % of control (2×); (dose: 200.0 mg/kg/injection, schedule: Q01DX010 (ip), vehicle: alkali diluted with saline) 145 and 145 % of control [5 of 6 alive]; (dose: 200.0 mg/kg/injection, schedule: Q01DX Z (ip), vehicle: other) 138 % of control.

Take `O=C(O)CCCc1ccc(N(CCCl)CCCl)cc1`: the T/C (dose: 12.5 mg/kg/injection, schedule: Q01DX010 (ip), vehicle: saline) was 130 % of control (2×). In addition, the survivor count by setting is: under setting [4], 3 of 6; (dose: 25.0 mg/kg/injection, schedule: Q01DX010 (ip), vehicle: saline) 0 of 6 and 3 of 6; (dose: 25.0 mg/kg/injection, schedule: Q01DX Z (ip), vehicle: carboxymethylcellulose (CMC)) 3 of 6; (dose: 50.0 mg/kg/injection, schedule: Q01DX Z (ip), vehicle: carboxymethylcellulose (CMC)) 1 of 6 and 3 of 6.

As for `Cc1c2oc3c(C)ccc(C(=O)N[C@@H]4C(=O)N[C@H](C(C)C)C(=O)N5CCC[C@H]5C(=O)N(C)CC(=O)N(C)[C@@H](C(C)C)C(=O)O[C@H]4C)c3nc-2c(C(=O)N[C@@H]2C(=O)N[C@H](C(C)C)C(=O)N3CCC[C@H]3C(=O)N(C)CC(=O)N(C)[C@@H](C(C)C)C(=O)O[C@H]2C)c(N)c1=O` (I: [aThr][dV]P[Sar][NMeV] / II: [aThr][dV]P[Sar][NMeV]; ester I:1-I:C, II:1-II:C; linker I:N-II:N via Actinocin(9to1)), the T/C by setting is: (dose: 12.5 micrograms/kg/injection, schedule: Q01DX010 (ip), vehicle: other) 140 % of control; (dose: 25.0 micrograms/kg/injection, schedule: Q01DX Z (ip), vehicle: saline) 133 % of control; (dose: 100.0 micrograms/kg/injection, schedule: Q01DX010 (ip), vehicle: other) 130 % of control.

On to `CCCCNc1ncnc2c1cnn2C`, for which the survivor count reads like this: under setting [3], 5 of 6; (dose: 250.0 mg/kg/injection, schedule: Q01DX010 (ip), vehicle: saline) 2 of 6.

In the case of `N#CCSc1ncnc2nc[nH]c12`, the T/C is, setting by setting: under setting [4], 140 % of control; (dose: 15.0 mg/kg/injection, schedule: Q01DX010 (ip), vehicle: saline) 130 % of control; (dose: 60.0 mg/kg/injection, schedule: Q01DX010 (ip), vehicle: saline) 145 % of control; under setting [5], 140 % of control. Further, the survivor count runs as follows: (dose: 100.0 mg/kg/injection, schedule: Q01DX Z (ip), vehicle: carboxymethylcellulose (CMC)) 3 of 6; under setting [5], 5 of 6; under setting [2], 0 of 6.

For `O=C1C(NC(=O)C2CCCCC2)=C(N2CC2)C(=O)C(NC(=O)C2CCCCC2)=C1N1CC1`, the T/C (dose: 18.8 mg/kg/injection, schedule: Q01DX Z (ip), vehicle: carboxymethylcellulose (CMC)) was 128 % of control. Moreover, the survivor count is reported as 6 of 6 (dose: 37.5 mg/kg/injection, schedule: Q01DX Z (ip), vehicle: carboxymethylcellulose (CMC)); 6 of 6 (dose: 75.0 mg/kg/injection, schedule: Q01DX Z (ip), vehicle: carboxymethylcellulose (CMC)); 6 of 6 (dose: 150.0 mg/kg/injection, schedule: Q01DX Z (ip), vehicle: carboxymethylcellulose (CMC)); 4 of 6 (dose: 200.0 mg/kg/injection, schedule: Q01DX010 (ip), vehicle: saline); 6 of 6 (dose: 300.0 mg/kg/injection, schedule: Q01DX Z (ip), vehicle: carboxymethylcellulose (CMC)).

For `CN(N=O)C(=O)NC(C=O)C(O)C(O)C(O)CO` (centres undefined), for the setting “dose: 400.0 mg/kg/injection, schedule: Q01DX Z (ip), vehicle: saline”, the survivor count is 5 of 6.
